Test results published in publication PMC9276262 (ChemMedChem, 2021).
pIC50: −log10 of the molar value.

Key:
[1] = molecular target: T1, purified recombinant aromatase (Homo sapiens, UniProt P11511); assay: biochemical
T1 sequence (P11511 1-503): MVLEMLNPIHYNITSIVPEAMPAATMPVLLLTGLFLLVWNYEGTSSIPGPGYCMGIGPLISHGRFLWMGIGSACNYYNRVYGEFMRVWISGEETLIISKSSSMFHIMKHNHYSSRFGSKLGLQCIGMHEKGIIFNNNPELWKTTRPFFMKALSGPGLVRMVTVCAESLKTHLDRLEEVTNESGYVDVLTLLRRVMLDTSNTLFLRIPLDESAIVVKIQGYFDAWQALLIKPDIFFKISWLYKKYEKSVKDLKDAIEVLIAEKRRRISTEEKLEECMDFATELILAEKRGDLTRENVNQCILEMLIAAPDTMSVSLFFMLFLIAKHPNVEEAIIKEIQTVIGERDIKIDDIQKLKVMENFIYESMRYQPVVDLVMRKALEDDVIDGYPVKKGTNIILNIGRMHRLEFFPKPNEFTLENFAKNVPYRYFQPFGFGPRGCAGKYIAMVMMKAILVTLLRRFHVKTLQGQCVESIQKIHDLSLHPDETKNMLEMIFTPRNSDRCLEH

CYP19A1 (aromatase) = molecular target: T2, CYP19A1 (aromatase) (Homo sapiens, UniProt P11511); assay: cell-based
T2 sequence (P11511 1-503): T1 sequence (P11511 1-503)

aromatase = settings: read-out: IC50 (nM) Literature; literature range; cited from earlier work

CC(C)(C#N)c1cc(Cn2cncn2)cc(C(C)(C)C#N)c1 [Anastrozole, anastrozole]
pIC50 [1]: 8.48
pIC50 (CYP19A1 (aromatase)): 8.02
IC50 (aromatase): 0.8 to 600 nM
